Source: PMC8981113
Like-named read-outs stand apart in the source and are kept apart here. Results are given in words; binding and its absence hold for the method and conditions named. Binding seen in cells or lysates may run through a third protein. Some entries that bind do so weakly or less than the wild type. Sequences can lack the tags named with a protein.

Sequences of proteins named here, by UniProt entry; tags and fusion partners are left off.
UniProt Q14999: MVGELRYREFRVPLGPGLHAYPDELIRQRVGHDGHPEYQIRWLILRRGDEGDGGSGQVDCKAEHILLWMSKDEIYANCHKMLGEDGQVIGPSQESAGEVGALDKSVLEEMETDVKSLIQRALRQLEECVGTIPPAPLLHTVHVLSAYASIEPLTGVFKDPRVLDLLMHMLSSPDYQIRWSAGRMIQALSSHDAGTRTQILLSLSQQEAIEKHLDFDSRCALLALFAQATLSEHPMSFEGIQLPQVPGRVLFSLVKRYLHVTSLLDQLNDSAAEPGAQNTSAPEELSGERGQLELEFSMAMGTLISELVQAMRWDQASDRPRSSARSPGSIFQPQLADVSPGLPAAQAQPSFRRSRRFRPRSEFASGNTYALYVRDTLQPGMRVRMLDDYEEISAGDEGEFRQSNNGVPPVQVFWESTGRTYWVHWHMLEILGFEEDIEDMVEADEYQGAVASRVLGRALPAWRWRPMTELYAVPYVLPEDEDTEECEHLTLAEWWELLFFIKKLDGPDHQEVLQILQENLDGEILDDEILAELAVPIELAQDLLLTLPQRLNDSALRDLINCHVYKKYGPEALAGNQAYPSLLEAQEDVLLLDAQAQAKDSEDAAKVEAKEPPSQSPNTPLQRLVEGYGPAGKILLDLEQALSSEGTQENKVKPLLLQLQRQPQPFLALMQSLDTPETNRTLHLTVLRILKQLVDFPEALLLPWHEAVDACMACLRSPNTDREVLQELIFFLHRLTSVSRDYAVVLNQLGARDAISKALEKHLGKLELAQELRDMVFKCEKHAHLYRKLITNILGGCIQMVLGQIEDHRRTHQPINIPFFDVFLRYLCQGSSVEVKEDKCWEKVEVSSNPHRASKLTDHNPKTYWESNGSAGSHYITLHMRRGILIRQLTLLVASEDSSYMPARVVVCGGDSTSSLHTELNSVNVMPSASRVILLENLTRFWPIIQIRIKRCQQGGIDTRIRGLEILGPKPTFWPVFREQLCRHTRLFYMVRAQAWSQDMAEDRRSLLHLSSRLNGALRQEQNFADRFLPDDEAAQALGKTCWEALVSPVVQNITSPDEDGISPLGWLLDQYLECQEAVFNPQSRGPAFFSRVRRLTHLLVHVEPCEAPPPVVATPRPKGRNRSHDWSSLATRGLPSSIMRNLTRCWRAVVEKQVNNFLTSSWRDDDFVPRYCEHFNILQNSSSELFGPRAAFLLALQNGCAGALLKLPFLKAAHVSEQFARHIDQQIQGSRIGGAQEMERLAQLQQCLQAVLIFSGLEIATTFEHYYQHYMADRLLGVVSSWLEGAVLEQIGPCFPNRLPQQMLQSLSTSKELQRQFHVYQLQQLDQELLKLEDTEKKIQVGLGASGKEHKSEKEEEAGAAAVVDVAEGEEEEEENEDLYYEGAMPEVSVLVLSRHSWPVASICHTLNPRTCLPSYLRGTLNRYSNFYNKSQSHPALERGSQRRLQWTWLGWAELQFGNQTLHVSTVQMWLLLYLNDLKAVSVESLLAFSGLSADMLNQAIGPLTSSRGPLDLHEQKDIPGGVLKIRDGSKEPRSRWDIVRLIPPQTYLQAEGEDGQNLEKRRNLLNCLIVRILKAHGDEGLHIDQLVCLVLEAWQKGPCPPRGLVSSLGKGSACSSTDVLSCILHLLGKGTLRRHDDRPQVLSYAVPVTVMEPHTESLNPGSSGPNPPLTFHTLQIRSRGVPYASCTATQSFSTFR
UniProt Q16531: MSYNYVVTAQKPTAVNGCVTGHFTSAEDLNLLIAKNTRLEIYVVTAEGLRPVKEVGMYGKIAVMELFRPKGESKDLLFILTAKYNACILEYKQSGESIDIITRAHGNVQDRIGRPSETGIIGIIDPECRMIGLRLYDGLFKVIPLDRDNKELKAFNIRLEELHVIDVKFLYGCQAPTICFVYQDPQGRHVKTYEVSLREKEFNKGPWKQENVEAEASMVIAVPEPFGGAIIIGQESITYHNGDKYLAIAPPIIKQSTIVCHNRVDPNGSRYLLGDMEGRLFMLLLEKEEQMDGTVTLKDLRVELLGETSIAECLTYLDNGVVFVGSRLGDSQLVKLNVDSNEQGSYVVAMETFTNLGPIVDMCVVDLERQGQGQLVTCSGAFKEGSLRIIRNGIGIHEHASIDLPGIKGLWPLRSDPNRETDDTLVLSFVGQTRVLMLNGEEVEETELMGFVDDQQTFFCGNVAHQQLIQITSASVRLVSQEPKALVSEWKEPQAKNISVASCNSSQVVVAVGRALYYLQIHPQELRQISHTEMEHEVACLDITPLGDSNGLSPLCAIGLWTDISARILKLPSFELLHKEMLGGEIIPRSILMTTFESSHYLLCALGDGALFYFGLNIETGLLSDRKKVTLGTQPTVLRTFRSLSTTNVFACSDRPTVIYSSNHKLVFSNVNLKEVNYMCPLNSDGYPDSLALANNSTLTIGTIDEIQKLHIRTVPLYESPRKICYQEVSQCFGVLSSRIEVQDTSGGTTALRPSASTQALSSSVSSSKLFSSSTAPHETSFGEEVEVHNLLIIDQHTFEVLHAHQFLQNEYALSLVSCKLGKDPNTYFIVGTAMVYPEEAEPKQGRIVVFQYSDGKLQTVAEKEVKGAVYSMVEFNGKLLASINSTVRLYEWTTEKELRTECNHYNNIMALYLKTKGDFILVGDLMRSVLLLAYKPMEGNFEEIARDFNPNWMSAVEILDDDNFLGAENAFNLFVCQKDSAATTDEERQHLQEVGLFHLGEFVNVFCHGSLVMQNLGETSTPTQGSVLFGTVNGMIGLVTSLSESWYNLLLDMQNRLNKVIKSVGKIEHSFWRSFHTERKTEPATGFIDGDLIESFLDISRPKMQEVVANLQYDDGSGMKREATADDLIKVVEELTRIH

T1: HA-epitope tagged BNRF1 (EBV major tegument protein), wild type (Epstein-Barr virus) (UniProt P03179)
T1 sequence: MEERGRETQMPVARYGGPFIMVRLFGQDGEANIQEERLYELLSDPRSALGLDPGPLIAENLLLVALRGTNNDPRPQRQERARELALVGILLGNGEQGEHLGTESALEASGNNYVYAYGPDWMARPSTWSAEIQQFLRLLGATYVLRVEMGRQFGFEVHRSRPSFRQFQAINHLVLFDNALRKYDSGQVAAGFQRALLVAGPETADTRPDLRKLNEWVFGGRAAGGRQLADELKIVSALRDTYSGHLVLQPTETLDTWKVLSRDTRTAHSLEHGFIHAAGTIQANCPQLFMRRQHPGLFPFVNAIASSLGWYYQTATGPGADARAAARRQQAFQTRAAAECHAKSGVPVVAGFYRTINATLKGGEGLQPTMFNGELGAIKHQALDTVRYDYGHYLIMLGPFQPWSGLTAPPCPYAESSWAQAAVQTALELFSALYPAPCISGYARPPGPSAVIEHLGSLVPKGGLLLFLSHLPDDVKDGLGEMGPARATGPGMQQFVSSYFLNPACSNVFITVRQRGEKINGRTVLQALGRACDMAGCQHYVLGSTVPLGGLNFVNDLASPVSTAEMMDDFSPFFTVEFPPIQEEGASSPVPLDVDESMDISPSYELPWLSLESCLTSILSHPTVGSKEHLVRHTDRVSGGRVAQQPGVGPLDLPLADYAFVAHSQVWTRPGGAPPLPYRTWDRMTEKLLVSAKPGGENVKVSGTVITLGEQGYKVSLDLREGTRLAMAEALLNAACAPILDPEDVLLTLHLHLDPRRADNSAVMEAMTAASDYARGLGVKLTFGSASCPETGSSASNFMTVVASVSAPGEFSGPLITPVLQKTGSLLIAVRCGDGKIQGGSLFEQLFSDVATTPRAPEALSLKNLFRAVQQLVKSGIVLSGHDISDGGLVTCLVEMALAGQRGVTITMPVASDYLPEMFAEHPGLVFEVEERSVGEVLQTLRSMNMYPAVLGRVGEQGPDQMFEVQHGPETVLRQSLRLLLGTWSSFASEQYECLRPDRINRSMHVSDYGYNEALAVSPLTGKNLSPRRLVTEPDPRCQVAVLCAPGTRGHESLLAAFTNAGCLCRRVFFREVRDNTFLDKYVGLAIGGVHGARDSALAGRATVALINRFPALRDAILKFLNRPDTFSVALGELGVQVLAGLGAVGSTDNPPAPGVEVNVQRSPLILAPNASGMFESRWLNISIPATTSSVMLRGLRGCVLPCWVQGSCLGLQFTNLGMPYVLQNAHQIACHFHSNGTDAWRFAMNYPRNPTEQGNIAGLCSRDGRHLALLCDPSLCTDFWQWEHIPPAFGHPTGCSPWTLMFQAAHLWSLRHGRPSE

T2: HA-tagged SMC6 (human) (UniProt Q96SB8)
T2 sequence: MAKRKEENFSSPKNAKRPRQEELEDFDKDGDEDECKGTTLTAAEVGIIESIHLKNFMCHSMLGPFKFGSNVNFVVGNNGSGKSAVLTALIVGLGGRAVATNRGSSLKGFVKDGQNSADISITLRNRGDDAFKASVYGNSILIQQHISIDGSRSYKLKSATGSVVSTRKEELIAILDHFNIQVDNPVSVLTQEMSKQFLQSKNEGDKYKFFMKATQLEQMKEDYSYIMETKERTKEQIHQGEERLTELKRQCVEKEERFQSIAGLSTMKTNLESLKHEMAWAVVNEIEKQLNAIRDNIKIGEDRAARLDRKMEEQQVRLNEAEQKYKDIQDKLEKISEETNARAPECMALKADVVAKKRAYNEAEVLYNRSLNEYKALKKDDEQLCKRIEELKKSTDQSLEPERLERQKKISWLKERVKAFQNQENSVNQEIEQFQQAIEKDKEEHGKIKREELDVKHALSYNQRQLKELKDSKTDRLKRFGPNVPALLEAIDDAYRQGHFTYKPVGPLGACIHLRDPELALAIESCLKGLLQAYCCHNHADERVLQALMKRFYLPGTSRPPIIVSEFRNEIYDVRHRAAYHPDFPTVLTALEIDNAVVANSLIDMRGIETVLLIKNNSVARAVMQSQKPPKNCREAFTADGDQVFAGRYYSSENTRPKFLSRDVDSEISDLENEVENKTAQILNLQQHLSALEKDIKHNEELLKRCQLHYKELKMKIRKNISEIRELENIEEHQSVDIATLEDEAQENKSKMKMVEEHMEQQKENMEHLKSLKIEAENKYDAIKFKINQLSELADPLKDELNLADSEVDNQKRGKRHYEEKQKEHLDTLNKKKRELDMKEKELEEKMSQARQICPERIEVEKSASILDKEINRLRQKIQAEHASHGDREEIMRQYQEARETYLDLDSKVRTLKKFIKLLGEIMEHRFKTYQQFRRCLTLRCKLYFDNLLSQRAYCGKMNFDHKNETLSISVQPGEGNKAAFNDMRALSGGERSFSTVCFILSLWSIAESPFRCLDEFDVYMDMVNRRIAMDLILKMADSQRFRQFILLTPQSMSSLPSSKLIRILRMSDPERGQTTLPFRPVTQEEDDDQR


What was measured:
Experiment in all cases: co-IP; anti-HA magnetic beads on lysates of P3HR-1 ZHT/RHT cells with dox-induced HA-tagged bait (BNRF1, BNRF1 mutants or SMC6); bortezomib added; in some panels cells induced for lytic replication; lysis buffer 1% NP40, 150 mM Tris, 300 mM NaCl, 4°C overnight; immunoblot
[1] = target: T1, HA-epitope tagged BNRF1 (EBV major tegument protein), wild type (Epstein-Barr virus)
[2] = target: T1, HA-epitope tagged BNRF1 (EBV major tegument protein), wild type (Epstein-Barr virus); remark: listed apart in the source
HA-tagged SMC6 (human) = target: T2, HA-tagged SMC6 (human)

Molecule | binding [1] | binding [2] | binding (HA-tagged SMC6 (human))
Cullin-7 (from UniProt Q14999 1-1698) | binds |  | 
DDB1 (from UniProt Q16531 1-1140) | no binding |  | 
CAPNS1 (calpain regulatory subunit) (protein, UniProt P04632 1-268) MFLVNSFLKGGGGGGGGGGGLGGGLGNVLGGLISGAGGGGGGGGGGGGGGGGGGGGTAMRILGGVISAISEAAAQYNPEPPPPRTHYSNIEANESEEVRQFRRLFAQLAGDDMEVSATELMNILNKVVTRHPDLKTDGFGIDTCRSMVAVMDSDTTGKLGFEEFKYLWNNIKRWQAIYKQFDTDRSGTICSSELPGAFEAAGFHLNEHLYNMIIRRYSDESGNMDFDNFISCLVRLDAMFRAFKSLDKDGTGQIQVNIQEWLQLTMYS |  | binds | binds
endogenous SMC6 (protein, UniProt Q96SB8 1-1091) MAKRKEENFSSPKNAKRPRQEELEDFDKDGDEDECKGTTLTAAEVGIIESIHLKNFMCHSMLGPFKFGSNVNFVVGNNGSGKSAVLTALIVGLGGRAVATNRGSSLKGFVKDGQNSADISITLRNRGDDAFKASVYGNSILIQQHISIDGSRSYKLKSATGSVVSTRKEELIAILDHFNIQVDNPVSVLTQEMSKQFLQSKNEGDKYKFFMKATQLEQMKEDYSYIMETKERTKEQIHQGEERLTELKRQCVEKEERFQSIAGLSTMKTNLESLKHEMAWAVVNEIEKQLNAIRDNIKIGEDRAARLDRKMEEQQVRLNEAEQKYKDIQDKLEKISEETNARAPECMALKADVVAKKRAYNEAEVLYNRSLNEYKALKKDDEQLCKRIEELKKSTDQSLEPERLERQKKISWLKERVKAFQNQENSVNQEIEQFQQAIEKDKEEHGKIKREELDVKHALSYNQRQLKELKDSKTDRLKRFGPNVPALLEAIDDAYRQGHFTYKPVGPLGACIHLRDPELALAIESCLKGLLQAYCCHNHADERVLQALMKRFYLPGTSRPPIIVSEFRNEIYDVRHRAAYHPDFPTVLTALEIDNAVVANSLIDMRGIETVLLIKNNSVARAVMQSQKPPKNCREAFTADGDQVFAGRYYSSENTRPKFLSRDVDSEISDLENEVENKTAQILNLQQHLSALEKDIKHNEELLKRCQLHYKELKMKIRKNISEIRELENIEEHQSVDIATLEDEAQENKSKMKMVEEHMEQQKENMEHLKSLKIEAENKYDAIKFKINQLSELADPLKDELNLADSEVDNQKRGKRHYEEKQKEHLDTLNKKKRELDMKEKELEEKMSQARQICPERIEVEKSASILDKEINRLRQKIQAEHASHGDREEIMRQYQEARETYLDLDSKVRTLKKFIKLLGEIMEHRFKTYQQFRRCLTLRCKLYFDNLLSQRAYCGKMNFDHKNETLSISVQPGEGNKAAFNDMRALSGGERSFSTVCFILSLWSIAESPFRCLDEFDVYMDMVNRRIAMDLILKMADSQRFRQFILLTPQSMSSLPSSKLIRILRMSDPERGQTTLPFRPVTQEEDDDQR |  | binds | 
